This assay in a line: qHTS Assay for Lipid Storage Modulators in Drosophila S3 Cells.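 For cell number change: cells counted by Cell Tracker Red CMTPX staining in the red channel.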 The note with it: BODIPY lipid droplet fluorescence, 18-24 h; for cell number change: measured here: cell count max response, cells fed with added oleic acid. The procedure, abridged:
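Drosophila S3 cells loaded with oleic acid (400 uM, as added) and compounds at several concentrations; lipid droplets imaged by 488-nm laser-scanning cytometry, 500–530 nm intensity and object ratio to cell channel. Percent activity normalized to 20 uM Triacsin C.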
(Quantitative high-throughput screening tests each substance at several concentrations.)

Where [1] appears, read: measured here: cell number channel AC50, cells fed with added oleic acid.
Setting [2] is: measured here: lipid fluorescence (Fed channel) AC50, cells fed with added oleic acid.

This is one part of the list. Shown are side measurements of this screen, not its main read-out; they come without a call. Most of these compounds were active or inconclusive in the main read-out, so they are no random draw. Words in brackets tell the shape of the fitted curve; partial curves, single points and poor fits give uncertain potencies.

As usually defined, the AC50 is the concentration giving half of the maximal activity seen. Low values mean activity at low concentration, high ones activity only at high concentration. Turning to `O=C(c1ccc([N+](=O)[O-])cc1)N1CCOC12CCN(c1ncc(C(F)(F)F)cc1Cl)CC2`, the cell number change is -54.2%. Moreover, under setting [1], the AC50 was 2.91 µM [falling, partial curve]. Moreover, the AC50 under setting [2] is 0.651 µM [rising, single point].
In the case of `O=C(NC1CCCC1)C1CCN(C(=O)c2cccc(Cl)c2)CC1`, the cell number change is 10.5%.
For `O=C(NCC1CCCO1)C(c1ccc(F)cc1)N(CC1CCCO1)C(=O)c1ccc(-c2ccccc2)[nH]1` (centres undefined), the cell number change is -8.15%. Further, the AC50 under setting [2] is 32.6 µM [falling, single point].
Turning to `COc1ccc2nc(SCC(N)=O)cc(C)c2c1`, the cell number change worked out at 43.8%. Also, under setting [1], the AC50 is 25.9 µM [rising, single point]. The AC50 under setting [2] was 0.731 µM [rising, partial curve, poor fit].
Consider `CC1CC(C)CN(C(=O)CSC2=Nc3ccccc3C3=NC(Cc4c[nH]c5ccccc45)C(=O)N23)C1` (centres undefined), for which the AC50 is 1.46 µM [rising, partial curve] under setting [1] and 29.1 µM [falling, single point] under setting [2].
As to `CCCC(=O)Nc1ccc(C(=O)N/N=C/c2ccc[nH]2)cc1`, the cell number change amounted to 76.8%. Also, under setting [1], the AC50 is 4.11 µM [rising, full curve, poor fit].
For the compound `CC(=O)NC(C)C(=O)OCC(=O)c1ccc(-c2ccccc2)cc1` (centres undefined), the cell number change is -29%. Further, the concentration at half-maximal activity (AC50) under setting [2] is 29.1 µM [falling, partial curve, poor fit].
Consider `Cc1cc(C(=O)Nc2cccc(C)c2C)c2ccccc2n1`, for which the cell number change is 31.4%.
For the compound `Cn1nc2c3cc(F)ccc3n(Cc3ccc(F)cc3)cc-2c1=O`, the cell number change was -13.5%. In addition, under setting [1], the half-maximal activity concentration (AC50) is 0.103 µM [falling, full curve].
For `COc1cccc2c(=O)cc(C)n(CC(=O)Nc3cccc(C)c3)c12`, the cell number change is -30.7%. The AC50 under setting [1] was 5.17 µM [falling, partial curve]. Also, the AC50 under setting [2] is 4.11 µM [falling, partial curve].
Consider `C(=N\n1cnnc1SCc1ccccc1)/c1ccco1`, for which the cell number change was -6.36%.
Turning to `C=CCN1C(=O)/C(=C/c2ccc(N(C)C)cc2)S/C1=N\c1nnc(CC)s1`, the cell number change was found to be 55.3%. Under setting [1], the concentration at half-maximal activity (AC50) was 0.461 µM [rising, full curve].
Regarding `CC(C)(C)n1nnnc1C(c1ccc(C(F)(F)F)cc1)N(Cc1ccc(F)cc1)Cc1ccco1` (centres undefined), the cell number change is -31.5%. Also, under setting [1], the AC50 is 3.26 µM [falling, full curve]. Further, under setting [2], the AC50 is 2.91 µM [falling, full curve].
Regarding `O=C(Nc1ccnc(-c2ccncc2)n1)c1ccc(Cl)cc1`, the cell number change was 23.5%. In addition, under setting [2], the half-maximal activity concentration (AC50) was 3.26 µM [rising, partial curve, poor fit].
As to `O=C(COC(=O)c1ccccc1SCC(=O)N1CCCC1)Nc1ccc(OC(F)F)cc1`, the cell number change was -29.2%. Also, the AC50 under setting [1] is 0.0164 µM [falling, full curve, poor fit]. Also, under setting [2], the AC50 is 6.51 µM [rising, single point].
Regarding `CC(CC(=O)NNC(=O)c1cccc(Cl)c1)c1ccccc1` (centres undefined), the cell number change is 4.7%.
Turning to `c1ccc(NC2=Nc3ccccc3CC2)cc1`, the cell number change amounted to 16.2%.
`CCc1ccc(OC(C)C(=O)Nc2ccc(S(=O)(=O)Nc3cc(C)on3)cc2)cc1` (centres undefined): the AC50 is, setting by setting: under setting [1], 1.64 µM [rising, partial curve, poor fit]; under setting [2], 6.51 µM [rising, single point].
Regarding `CC(OC(=O)c1n[nH]c2ccccc12)C(=O)Nc1ccccc1[N+](=O)[O-]` (centres undefined), the cell number change turned out to be 25.6%.
`CC(C)(C)c1ccc(C(=O)NN2CCOCC2)cc1`: the cell number change came to 9.19%. Also, under setting [2], the half-maximal activity concentration (AC50) was 6.51 µM [rising, single point].
As to `COc1ccccc1Nc1nnc(SCC2CCCCO2)s1` (centres undefined), the cell number change amounted to 20.3%. For the same compound, the AC50 under setting [1] is 1.84 µM [rising, partial curve, poor fit]. In addition, the AC50 under setting [2] was 0.231 µM [rising, full curve, poor fit].
`COc1cc2c(cc1OC)C(c1cccs1)CC(=O)N2` (centres undefined): the cell number change came to 10.4%. Further, the half-maximal activity concentration (AC50) under setting [2] is 25.9 µM [falling, single point].
Turning to `COCCN(CC(=O)Nc1cccc(C)c1C)C(=O)c1cc(-c2cccs2)nn1-c1ccccc1`, the cell number change was 2.46%. The AC50 under setting [2] is 3.66 µM [falling, single point].
Consider `CCOC(=O)c1oc2nc(C)c3c(c2c1N)CC(C)(C)OC3`, for which the cell number change is 74.8%. In addition, under setting [1], the half-maximal activity concentration (AC50) is 4.61 µM [rising, partial curve]. The AC50 under setting [2] was 0.259 µM [rising, partial curve].
Consider `O=C(O)C1C2CCC(C2)C1C(=O)N1CCCC1` (centres undefined), for which the cell number change is -10.2%. Besides, under setting [2], the AC50 was 20.6 µM [rising, partial curve].
As to `O=C(NN1CCCCC1)c1ccc(COc2ccc(Cl)cc2)cc1`, the cell number change was 36.5%. Besides, under setting [1], the AC50 was 23.1 µM [rising, single point]. Also, under setting [2], the AC50 was 20.6 µM [rising, single point].
Take `CCn1cc(C(=O)Nc2ccccc2C(=O)OC)c(=O)c2ccc(C)nc21`: the cell number change is -3.43%.
Take `Cc1nnc(Sc2c(N)n(C)c(=O)[nH]c2=O)s1`: the cell number change came to 0.833%. The AC50 under setting [2] was 4.61 µM [falling, full curve].
In the case of `Cc1cc(NC(=O)/C=C/c2cccc(F)c2)n(-c2nc3ccccc3[nH]2)n1`, the cell number change is -7.7%. Further, the concentration at half-maximal activity (AC50) under setting [2] is 2.31 µM [rising, single point].
On to `COc1ccc(Cl)cc1N(CC(=O)N1CCN(Cc2ccccc2)CC1)S(C)(=O)=O`, for which the cell number change was 1.29%. Moreover, the AC50 under setting [2] is 0.00461 µM [falling, full curve, poor fit].
Take `COc1cccc(Cn2nnc(C(=O)NCc3ccc4c(c3)OCO4)c2N)c1`: the cell number change turned out to be 64.2%.
As for `Cc1cc(C(=O)OCC(=O)N(CC(C)C)c2c(N)n(Cc3ccccc3)c(=O)[nH]c2=O)c(C)o1`, the cell number change came out at 65.5%. Further, the AC50 under setting [1] is 23.1 µM [rising, single point].
Regarding `Cc1ccc(-c2cccc(C(=O)NCc3ccccc3)n2)c2ccccc12`, the cell number change is -21%. Moreover, under setting [2], the half-maximal activity concentration (AC50) was 29.1 µM [falling, single point].
Turning to `CCC(C(=O)OCC(=O)Nc1cccc(C(C)=O)c1)c1ccccc1` (centres undefined), the half-maximal activity concentration (AC50) under setting [2] is 0.461 µM [rising, full curve, poor fit].
For `CC(=O)N(C)c1ccc(OCC(O)Cn2c3ccc(Cl)cc3c3cc(Cl)ccc32)cc1` (centres undefined), the cell number change was -15.9%. For the same compound, under setting [2], the concentration at half-maximal activity (AC50) is 29.1 µM [falling, single point].
For `Fc1ccc(Nc2nnns2)cc1`, the cell number change was -39.7%. The AC50 under setting [1] is 29.1 µM [falling, single point]. Also, under setting [2], the concentration at half-maximal activity (AC50) is 29.1 µM [falling, single point].
`O=C(/C=C\c1ccccc1)Oc1cccc2cccnc12`: the cell number change is -30%. In addition, the half-maximal activity concentration (AC50) under setting [1] is 0.731 µM [falling, full curve, poor fit].

The record behind these values is PubChem BioAssay AID2685 (National Center for Advancing Translational Sciences (NCATS), 2010).
